Results as given in paper PMC10152663, “SEC14-GOLD protein PATELLIN2 binds IRON-REGULATED TRANSPORTER1 linking root iron uptake to vitamin E” (Plant Physiology, 2022).
These are yes or no findings as the source states them, for the method shown. In cells and extracts the contact can be indirect. Some binding calls cover weakened binding; strength is not graded here. Where a sequence is shown, tags or fusion partners need not be part of it.

Biological target: T1, IRT1-GFP, green fluorescent protein-tagged IRON-REGULATED TRANSPORTER1 (Arabidopsis thaliana) (UniProt Q38856)
T1 sequence: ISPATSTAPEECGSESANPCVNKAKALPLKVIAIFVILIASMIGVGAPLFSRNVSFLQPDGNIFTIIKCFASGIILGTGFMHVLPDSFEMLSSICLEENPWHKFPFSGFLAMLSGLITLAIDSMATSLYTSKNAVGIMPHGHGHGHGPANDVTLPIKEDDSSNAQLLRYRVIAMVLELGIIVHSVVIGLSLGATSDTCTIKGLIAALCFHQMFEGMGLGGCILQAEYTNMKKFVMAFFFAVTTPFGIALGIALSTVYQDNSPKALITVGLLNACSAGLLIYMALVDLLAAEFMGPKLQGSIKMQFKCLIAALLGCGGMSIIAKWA
Test: co-IP; anti-GFP beads (ChromoTek) on protein extracts of transiently transformed N. benthamiana leaves expressing IRT1-GFP and PATL2-HA3; immunoblot

B1: PATL2-HA3, triple hemagglutinin-tagged PATELLIN2 (transient expression in N. benthamiana) (protein, UniProt Q56ZI2 1-683)
chain: MAQEEIQKPTASVPVVKEETPAPVKEVEVPVTTEKAVAAPAPEATEEKVVSEVAVPETEVTAVKEEEVATGKEILQSESFKEEGYLASELQEAEKNALAELKELVREALNKREFTAPPPPPAPVKEEKVEEKKTEETEEKKEEVKTEEKSLEAETKEEEKSAAPATVETKKEEILAAPAPIVAETKKEETPVAPAPVETKPAAPVVAETKKEEILPAAPVTTETKVEEKVVPVETTPAAPVTTETKEEEKAAPVTTETKEEEKAAPGETKKEEKATASTQVKRASKFIKDIFVSVTTSEKKKEEEKPAVVTIEKAFAADQEEETKTVEAVEESIVSITLPETAAYVEPEEVSIWGIPLLEDERSDVILLKFLRARDFKVKEAFTMLKNTVQWRKENKIDDLVSEDLEGSEFEKLVFTHGVDKQGHVVIYSSYGEFQNKEIFSDKEKLSKFLKWRIQFQEKCVRSLDFSPEAKSSFVFVSDFRNAPGLGQRALWQFIKRAVKQFEDNYPEFVAKELFINVPWWYIPYYKTFGSIITSPRTRSKMVLSGPSKSAETIFKYVAPEVVPVKYGGLSKDSPFTVEDGVTEAVVKSTSKYTIDLPATEGSTLSWELRVLGADVSYGAQFEPSNEASYTVIVSKNRKVGLTDEPVITDSFKASEAGKVVITIDNQTFKKKKVLYRSKTQA
With B1 the binding was “binds”.
